# Primary screen of a compound library

Data taken from ChEMBL document CHEMBL3988442, “University of Dundee, Small-Polar-MMV Screening Library” (2021).

Mtb growth Cornell: 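Whole-cell assay for inhibitors of Mycobacterium tuberculosis growth, labelled Cornell in the record; the read-out is not stated. The concentration is filed as 10 mM, unlikely as a test dose, so the dose is not known. Higher means stronger inhibition (inferred from two other growth screens of the library). Of about 53,000 compounds tested this way, about 900 (1.7%) reached 50% or more in at least one test.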
Mtb heat-shock: 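Assay on Mycobacterium tuberculosis, filed only as a heat shock assay from Cornell; the read-out is not stated. The concentration is filed as 10 mM, unlikely as a test dose, so the dose is not known. The record gives no direction; compounds that gave an IC50 in retests scored well above the rest, so higher reads as stronger inhibition. Of about 69,000 compounds tested this way, about 930 (1.4%) reached 50% or more in at least one test.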

Each number is a percent effect as filed. How 0% and 100% were set is not recorded. Most values in the screen are low, and negative values occur. This is an unselected part of the compounds tested.

CC(C)n1ccc(-c2cc(C(=O)N3CCCC3)c3ccccn23)n1 gave Mtb growth Cornell: 40.75%; Mtb heat-shock: 5.845%.
Cc1ccnc(N2CCN(C3CCS(=O)(=O)C3)CC2)n1 (configuration not stated) gave Mtb growth Cornell: -30.59%; Mtb heat-shock: 7.154%.
[H][C@@]12CCN(C[C@@H]1CC)[C@@H](CNC(=O)Nc1ccc(Br)cc1)C2 gave Mtb heat-shock: 4.849%.
CCC(=O)N1CCC2(CC1)c1nc[nH]c1CCN2S(C)(=O)=O gave Mtb growth Cornell: -26.72%; Mtb heat-shock: -7.001%.
[H][C@@]12CN(S(C)(=O)=O)C[C@]1([H])OCC(=O)N2CC1CC1 gave Mtb heat-shock: -0.3089%.
Cn1ccnc1-c1nc2cc(S(=O)(=O)N3CCCC3)ccc2n1C gave Mtb growth Cornell: 12.17%; Mtb heat-shock: -17.92%.
c1nc(N2CCCCC2Cn2cncn2)c2sccc2n1 (configuration not stated) gave Mtb growth Cornell: 13.04%; Mtb heat-shock: 4.372%.
Cc1cc(N2CCCC(c3n[nH]c4ncccc34)C2)ncn1 (configuration not stated) gave Mtb heat-shock: 0.8158%.
Cc1nnc2n1CCN(C(C(N)=O)c1ccc(F)cc1)C2 (configuration not stated) gave Mtb growth Cornell: 33.41%; Mtb heat-shock: 14.98%.
O=C1CC(N(C(=O)c2ccc3c(c2)CCC3)C2CC2)C(=O)N1 (configuration not stated) gave Mtb growth Cornell: -28.78%; Mtb heat-shock: 1.907%.
Cc1cccc(CN2CC3(CCNCC3)OCC2=O)n1 gave Mtb growth Cornell: 10.9%; Mtb heat-shock: 0.7406%.
Cc1c(CNC(=O)NCc2cccc(-n3cncn3)c2)cnn1C gave Mtb heat-shock: 9.228%.
Nc1nccc(NCc2cc3n(n2)CCCN(C2CCCCC2)C3)n1 gave Mtb growth Cornell: 19.47%; Mtb heat-shock: -41.54%.
Cn1cc(CC2CC(=O)N(Cc3ccc(Cl)cc3)C2=O)cn1 (configuration not stated) gave Mtb growth Cornell: -32.49%; Mtb heat-shock: -16.85%.
CCN(Cc1ccccc1Cl)Cn1nc(C)c2c(C)onc2c1=O gave Mtb growth Cornell: -24.43%; Mtb heat-shock: -3.539%.
Cc1c(CN2C[C@H](O)[C@@H](N3CCOCC3)C2)[nH]c2ccc(F)cc12 gave Mtb growth Cornell: -11.63%; Mtb heat-shock: -5.726%.
Cc1nn(CC(=O)NCCc2ccncc2)c(=O)n1Cc1ccccc1 gave Mtb growth Cornell: -13.66%; Mtb heat-shock: -30.48%.
CCN(CC)Cc1ccc(CNC(=O)C(C)(C)n2cc(Br)cn2)cc1 gave Mtb growth Cornell: -23.74%; Mtb heat-shock: -13.95%.
CN1CCN(CCO)C(=O)C12CCN(Cc1ccsc1)CC2.O=C(O)C(F)(F)F.O=C(O)C(F)(F)F gave Mtb growth Cornell: 8.033%; Mtb heat-shock: -8.674%.
COCC1c2nnn(CC3CC3)c2CCN1Cc1ccncc1.O=C(O)C(F)(F)F.O=C(O)C(F)(F)F (configuration not stated) gave Mtb growth Cornell: 18.59%; Mtb heat-shock: -0.9778%.
Cc1ccc(S(=O)(=O)N2CCCC3(CCCN3S(C)(=O)=O)C2)cc1F (configuration not stated) gave Mtb heat-shock: -36.09%.
CCOCCN1CCN(Cc2nnc(C3CC3)o2)CC1CC (configuration not stated) gave Mtb growth Cornell: -13.05%; Mtb heat-shock: -7.082%.
CC(C)CN1CCC(C(=O)NCCNC(=O)c2ccoc2)CC1 gave Mtb growth Cornell: -17.3%; Mtb heat-shock: -6.111%.
Cn1ccnc1CN1CCCC1c1noc(C2CC2)n1 (configuration not stated) gave Mtb heat-shock: 18.27%.
Cc1cccc(N2N=C(C(=O)NC(C)Cn3cccn3)CCC2=O)c1 (configuration not stated) gave Mtb growth Cornell: 7.155%; Mtb heat-shock: 8.856%.
CN(C)[C@@H]1C[C@@H](CO)N(C(=O)Nc2ccc(SC(F)(F)F)cc2)C1 gave Mtb growth Cornell: -3.474%; Mtb heat-shock: 3.125%.

Repeated from the top, 2 entries:

Compound,Mtb growth Cornell,Mtb heat-shock
CC(C)n1ccc(-c2cc(C(=O)N3CCCC3)c3ccccn23)n1,40.75%,5.845%
Cc1ccnc(N2CCN(C3CCS(=O)(=O)C3)CC2)n1 (configuration not stated),-30.59%,7.154%